From publication PMC2366074 come the findings set out here.

By UniProt entry, the sequences of proteins in these tests, tags left out.
UniProt P51532: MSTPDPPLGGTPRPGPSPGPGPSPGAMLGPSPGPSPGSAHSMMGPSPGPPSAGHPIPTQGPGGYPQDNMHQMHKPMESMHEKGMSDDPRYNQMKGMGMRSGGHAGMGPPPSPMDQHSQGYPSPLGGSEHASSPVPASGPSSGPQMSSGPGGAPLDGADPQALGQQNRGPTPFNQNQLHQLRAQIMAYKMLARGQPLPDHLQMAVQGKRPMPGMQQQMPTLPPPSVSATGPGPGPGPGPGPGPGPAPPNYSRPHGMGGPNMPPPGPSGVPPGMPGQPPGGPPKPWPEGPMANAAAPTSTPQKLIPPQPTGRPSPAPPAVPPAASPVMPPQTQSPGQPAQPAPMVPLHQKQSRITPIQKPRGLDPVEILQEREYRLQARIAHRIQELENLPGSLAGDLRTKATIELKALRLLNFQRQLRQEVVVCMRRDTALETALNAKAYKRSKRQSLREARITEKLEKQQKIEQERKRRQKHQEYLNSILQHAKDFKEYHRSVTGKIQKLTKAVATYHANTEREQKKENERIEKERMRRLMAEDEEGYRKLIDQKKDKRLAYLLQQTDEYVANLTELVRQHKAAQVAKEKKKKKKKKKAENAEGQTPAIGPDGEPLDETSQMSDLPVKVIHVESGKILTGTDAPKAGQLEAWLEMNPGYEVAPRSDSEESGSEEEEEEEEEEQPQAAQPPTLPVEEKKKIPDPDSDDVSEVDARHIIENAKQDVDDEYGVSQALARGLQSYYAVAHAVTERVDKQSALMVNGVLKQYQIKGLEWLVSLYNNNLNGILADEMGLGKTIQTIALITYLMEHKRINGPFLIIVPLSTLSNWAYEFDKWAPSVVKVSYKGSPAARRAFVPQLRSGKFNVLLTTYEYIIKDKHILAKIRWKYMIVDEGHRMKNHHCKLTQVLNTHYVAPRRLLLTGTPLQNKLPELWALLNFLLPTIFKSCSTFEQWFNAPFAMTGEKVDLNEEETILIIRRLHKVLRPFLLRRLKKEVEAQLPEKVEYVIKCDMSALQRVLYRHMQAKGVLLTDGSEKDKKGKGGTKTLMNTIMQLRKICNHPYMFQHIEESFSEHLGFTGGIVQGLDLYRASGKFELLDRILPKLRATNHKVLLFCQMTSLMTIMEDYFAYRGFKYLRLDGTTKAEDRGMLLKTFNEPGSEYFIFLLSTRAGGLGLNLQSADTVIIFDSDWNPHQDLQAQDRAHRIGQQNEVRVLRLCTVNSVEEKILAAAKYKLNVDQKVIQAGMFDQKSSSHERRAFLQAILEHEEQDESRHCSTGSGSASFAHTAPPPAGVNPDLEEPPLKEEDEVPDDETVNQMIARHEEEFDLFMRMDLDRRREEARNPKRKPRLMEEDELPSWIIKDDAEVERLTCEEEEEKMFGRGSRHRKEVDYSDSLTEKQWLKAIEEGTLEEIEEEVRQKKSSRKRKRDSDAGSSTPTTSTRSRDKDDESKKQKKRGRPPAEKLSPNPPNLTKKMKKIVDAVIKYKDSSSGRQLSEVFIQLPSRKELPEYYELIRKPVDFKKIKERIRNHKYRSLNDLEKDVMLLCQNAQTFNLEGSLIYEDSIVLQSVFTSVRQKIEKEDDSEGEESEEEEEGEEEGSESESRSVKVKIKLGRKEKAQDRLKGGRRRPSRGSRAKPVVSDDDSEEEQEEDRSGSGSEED
UniProt Q8TAQ2: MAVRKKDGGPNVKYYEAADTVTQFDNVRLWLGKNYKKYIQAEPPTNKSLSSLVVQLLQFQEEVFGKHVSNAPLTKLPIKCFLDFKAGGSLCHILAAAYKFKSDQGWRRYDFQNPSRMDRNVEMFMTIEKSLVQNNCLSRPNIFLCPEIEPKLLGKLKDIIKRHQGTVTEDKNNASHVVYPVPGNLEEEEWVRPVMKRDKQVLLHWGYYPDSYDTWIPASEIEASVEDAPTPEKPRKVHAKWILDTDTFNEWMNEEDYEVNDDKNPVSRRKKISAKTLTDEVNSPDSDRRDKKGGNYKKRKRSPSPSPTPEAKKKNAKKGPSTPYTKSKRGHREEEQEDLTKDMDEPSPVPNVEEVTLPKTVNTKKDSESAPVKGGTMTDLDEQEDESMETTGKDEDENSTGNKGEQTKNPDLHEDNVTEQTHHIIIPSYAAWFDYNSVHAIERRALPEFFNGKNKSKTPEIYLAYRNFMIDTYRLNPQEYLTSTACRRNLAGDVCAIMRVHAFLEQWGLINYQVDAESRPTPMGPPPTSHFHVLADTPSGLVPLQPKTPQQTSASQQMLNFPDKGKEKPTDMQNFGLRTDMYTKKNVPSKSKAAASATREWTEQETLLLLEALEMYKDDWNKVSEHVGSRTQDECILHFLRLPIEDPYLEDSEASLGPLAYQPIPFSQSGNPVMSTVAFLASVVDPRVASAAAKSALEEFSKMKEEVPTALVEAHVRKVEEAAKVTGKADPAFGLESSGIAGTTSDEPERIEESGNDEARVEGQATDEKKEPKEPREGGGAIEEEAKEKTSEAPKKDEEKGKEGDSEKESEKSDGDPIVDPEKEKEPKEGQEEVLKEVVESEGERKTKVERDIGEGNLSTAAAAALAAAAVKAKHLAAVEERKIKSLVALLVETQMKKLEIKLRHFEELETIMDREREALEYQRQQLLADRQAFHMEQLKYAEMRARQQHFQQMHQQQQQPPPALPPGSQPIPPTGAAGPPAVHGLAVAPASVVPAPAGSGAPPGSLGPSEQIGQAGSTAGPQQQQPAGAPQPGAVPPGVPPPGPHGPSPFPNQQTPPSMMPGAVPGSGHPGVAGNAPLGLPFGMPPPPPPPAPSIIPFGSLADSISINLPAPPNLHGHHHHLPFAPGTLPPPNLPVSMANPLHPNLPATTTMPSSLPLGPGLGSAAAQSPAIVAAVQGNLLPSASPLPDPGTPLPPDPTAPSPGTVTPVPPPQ

This assay has as its target T1, Recombinant green fluorescent protein (GFP)-ADNP (UniProt Q9H2P0).
T1 sequence: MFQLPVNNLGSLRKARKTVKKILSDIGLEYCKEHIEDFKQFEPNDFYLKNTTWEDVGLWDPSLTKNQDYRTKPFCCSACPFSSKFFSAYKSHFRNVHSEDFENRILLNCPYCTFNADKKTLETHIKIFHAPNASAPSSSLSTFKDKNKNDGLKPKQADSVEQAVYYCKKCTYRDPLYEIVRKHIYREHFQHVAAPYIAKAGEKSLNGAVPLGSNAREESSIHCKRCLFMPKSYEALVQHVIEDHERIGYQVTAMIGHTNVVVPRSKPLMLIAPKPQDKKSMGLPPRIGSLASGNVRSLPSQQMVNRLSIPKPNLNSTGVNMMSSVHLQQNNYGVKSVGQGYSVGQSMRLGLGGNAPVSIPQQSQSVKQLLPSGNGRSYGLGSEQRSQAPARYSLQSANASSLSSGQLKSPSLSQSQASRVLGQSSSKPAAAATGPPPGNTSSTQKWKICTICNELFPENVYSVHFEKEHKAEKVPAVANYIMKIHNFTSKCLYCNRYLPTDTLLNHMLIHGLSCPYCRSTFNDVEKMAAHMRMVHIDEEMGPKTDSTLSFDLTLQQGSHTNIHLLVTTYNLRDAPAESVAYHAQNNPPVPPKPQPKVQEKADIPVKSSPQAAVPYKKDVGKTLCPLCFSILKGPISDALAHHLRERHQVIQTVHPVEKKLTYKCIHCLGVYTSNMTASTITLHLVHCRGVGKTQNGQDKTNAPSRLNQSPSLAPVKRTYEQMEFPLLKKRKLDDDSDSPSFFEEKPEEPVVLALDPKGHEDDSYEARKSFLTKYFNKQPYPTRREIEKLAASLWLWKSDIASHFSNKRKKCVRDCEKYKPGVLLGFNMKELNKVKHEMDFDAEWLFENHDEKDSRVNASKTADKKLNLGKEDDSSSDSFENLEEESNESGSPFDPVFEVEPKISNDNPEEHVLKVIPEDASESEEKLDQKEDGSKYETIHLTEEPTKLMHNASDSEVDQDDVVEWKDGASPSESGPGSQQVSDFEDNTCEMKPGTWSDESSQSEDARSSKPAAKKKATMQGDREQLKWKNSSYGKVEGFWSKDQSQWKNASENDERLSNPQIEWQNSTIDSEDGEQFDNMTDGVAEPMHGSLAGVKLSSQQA
Description: affinity purification with mass spectrom.

Results are given in words; binding and its absence hold for the method and conditions named. Binding seen in cells or lysates may run through a third protein. These calls come from enrichment with a bait or labelling near it, and not all partners need be listed. Tags and fused reporters may be left off the sequences shown.

For the substance BRG1 (from UniProt P51532 1-1647), the binding entry is “binds”.

As for BAF170 (from UniProt Q8TAQ2 1-1214), the binding entry is on record as “binds”.
